T1: FLAG-tagged MED17 (human) (UniProt Q9NVC6)
T1 sequence: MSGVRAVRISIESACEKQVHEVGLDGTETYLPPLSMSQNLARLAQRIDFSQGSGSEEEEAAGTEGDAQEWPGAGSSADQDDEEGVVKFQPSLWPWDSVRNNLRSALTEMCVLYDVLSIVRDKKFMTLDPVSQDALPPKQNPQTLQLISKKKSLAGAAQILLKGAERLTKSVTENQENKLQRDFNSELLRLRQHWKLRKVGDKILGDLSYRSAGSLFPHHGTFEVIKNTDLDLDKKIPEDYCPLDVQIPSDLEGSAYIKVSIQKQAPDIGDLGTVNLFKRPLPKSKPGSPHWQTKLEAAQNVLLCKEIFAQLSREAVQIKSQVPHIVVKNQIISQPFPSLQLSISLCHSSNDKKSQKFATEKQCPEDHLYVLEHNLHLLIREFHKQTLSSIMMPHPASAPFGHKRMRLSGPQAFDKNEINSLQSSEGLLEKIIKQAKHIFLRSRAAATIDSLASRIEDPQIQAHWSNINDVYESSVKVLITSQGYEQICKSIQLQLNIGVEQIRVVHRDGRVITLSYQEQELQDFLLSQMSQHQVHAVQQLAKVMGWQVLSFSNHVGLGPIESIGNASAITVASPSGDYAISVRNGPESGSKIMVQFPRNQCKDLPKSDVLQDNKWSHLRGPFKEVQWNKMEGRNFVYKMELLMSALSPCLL

Chains of the proteins cited; added tags and fusions are not shown.
UniProt O60244: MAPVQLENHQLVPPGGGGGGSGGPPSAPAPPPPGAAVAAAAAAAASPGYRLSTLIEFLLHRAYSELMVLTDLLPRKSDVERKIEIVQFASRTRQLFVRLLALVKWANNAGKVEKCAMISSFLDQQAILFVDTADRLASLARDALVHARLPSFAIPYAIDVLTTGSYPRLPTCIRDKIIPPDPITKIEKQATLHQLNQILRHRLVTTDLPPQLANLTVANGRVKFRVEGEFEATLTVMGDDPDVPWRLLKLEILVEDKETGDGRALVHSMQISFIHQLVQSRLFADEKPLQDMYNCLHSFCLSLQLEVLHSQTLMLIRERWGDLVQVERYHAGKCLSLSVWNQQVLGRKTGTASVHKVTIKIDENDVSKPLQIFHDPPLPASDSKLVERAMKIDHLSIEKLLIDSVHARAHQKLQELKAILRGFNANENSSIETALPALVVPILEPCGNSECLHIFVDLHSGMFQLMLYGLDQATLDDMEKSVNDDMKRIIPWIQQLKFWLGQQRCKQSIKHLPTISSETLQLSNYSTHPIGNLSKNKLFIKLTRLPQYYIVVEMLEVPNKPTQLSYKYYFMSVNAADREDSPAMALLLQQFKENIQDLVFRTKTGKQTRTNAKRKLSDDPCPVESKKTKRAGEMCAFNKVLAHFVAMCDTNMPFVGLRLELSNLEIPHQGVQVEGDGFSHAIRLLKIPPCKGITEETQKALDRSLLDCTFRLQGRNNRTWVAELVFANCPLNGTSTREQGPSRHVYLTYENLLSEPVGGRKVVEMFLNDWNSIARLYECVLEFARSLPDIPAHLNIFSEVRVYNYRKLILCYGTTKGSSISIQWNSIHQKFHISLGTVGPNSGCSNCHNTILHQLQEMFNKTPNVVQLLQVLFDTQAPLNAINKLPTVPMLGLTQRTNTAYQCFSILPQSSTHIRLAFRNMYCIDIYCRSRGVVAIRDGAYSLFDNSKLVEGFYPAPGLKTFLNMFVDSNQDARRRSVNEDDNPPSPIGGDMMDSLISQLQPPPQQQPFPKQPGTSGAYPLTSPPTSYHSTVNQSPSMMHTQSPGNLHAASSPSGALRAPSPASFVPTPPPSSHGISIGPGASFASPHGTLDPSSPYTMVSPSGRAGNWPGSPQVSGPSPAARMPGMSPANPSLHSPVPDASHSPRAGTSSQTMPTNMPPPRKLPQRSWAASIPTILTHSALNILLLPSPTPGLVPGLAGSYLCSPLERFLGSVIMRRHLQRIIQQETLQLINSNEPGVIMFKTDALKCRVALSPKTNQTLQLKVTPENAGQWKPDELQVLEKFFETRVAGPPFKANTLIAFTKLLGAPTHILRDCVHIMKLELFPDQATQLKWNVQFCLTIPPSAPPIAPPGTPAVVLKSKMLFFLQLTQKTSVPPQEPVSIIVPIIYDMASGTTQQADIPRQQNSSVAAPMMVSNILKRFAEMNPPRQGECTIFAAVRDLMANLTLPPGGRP

B1: MED30 (protein, UniProt Q96HR3 1-178)
chain: MSTPPLAASGMAPGPFAGPQAQQAAREVNTASLCRIGQETVQDIVYRTMEIFQLLRNMQLPNGVTYHTGTYQDRLTKLQDNLRQLSVLFRKLRLVYDKCNENCGGMDPIPVEQLIPYVEEDGSKNDDRAGPPRFASEERREIAEVNKKLKQKNQQLKQIMDQLRNLIWDINAMLAMRN
B2: His-MED10 (protein, UniProt Q9BTT4 1-135)
chain: MAEKFDHLEEHLEKFVENIRQLGIIVSDFQPSSQAGLNQKLNFIVTGLQDIDKCRQQLHDITVPLEVFEYIDQGRNPQLYTKECLERALAKNEQVKGKIDTMKKFKSLLIQELSKVFPEDMAKYRSIRGEDHPPS
B3: MED11 (protein, UniProt Q9P086 1-117)
chain: MATYSLANERLRALEDIEREIGAILQNAGTVILELSKEKTNERLLDRQAAAFTASVQHVEAELSAQIRYLTQVATGQPHEGSSYSSRKDCQMALKRVDYARLKLSDVARTCEQMLEN
B4: MED6 (protein, UniProt O75586 1-246)
chain: MAAVDIRDNLLGISWVDSSWIPILNSGSVLDYFSERSNPFYDRTCNNEVVKMQRLTLEHLNQMVGIEYILLHAQEPILFIIRKQQRQSPAQVIPLADYYIIAGVIYQAPDLGSVINSRVLTAVHGIQSAFDEAMSYCRYHPSKGYWWHFKDHEEQDKVRPKAKRKEEPSSIFQRQRVDALLLDLRQKFPPKFVQLKPGEKPVPVDQTKKEAEPIPETVKPEEKETTKNVQQTVSAKGPPEKRMRLQ
B5: MED22 (protein, UniProt Q15528 1-200)
chain: MAQQRALPQSKETLLQSYNKRLKDDIKSIMDNFTEIIKTAKIEDETQVSRATQGEQDNYEMHVRAANIVRAGESLMKLVSDLKQFLILNDFPSVNEAIDQRNQQLRTLQEECDRKLITLRDEISIDLYELEEEYYSSSSSLCEANDLPLCEAYGRLDLDTDSADGLSAPLLASPEPSAGPLQVAAPAHSHAGGPGPTEHA
B6: MED8 (protein, UniProt Q96G25 1-268)
chain: MQREEKQLEASLDALLSQVADLKNSLGSFICKLENEYGRLTWPSVLDSFALLSGQLNTLNKVLKHEKTPLFRNQVIIPLVLSPDRDEDLMRQTEGRVPVFSHEVVPDHLRTKPDPEVEEQEKQLTTDAARIGADAAQKQIQSLNKMCSNLLEKISKEERESESGGLRPNKQTFNPTDTNALVAAVAFGKGLSNWRPSGSSGPGQAGQPGAGTILAGTSGLQQVQMAGAPSQQQPMLSGVQMAQAGQPGKMPSGIKTNIKSASMHPYQR
B7: MED31 (protein, UniProt Q9Y3C7 1-131)
chain: MAAAVAMETDDAGNRLRFQLELEFVQCLANPNYLNFLAQRGYFKDKAFVNYLKYLLYWKDPEYAKYLKYPQCLHMLELLQYEHFRKELVNAQCAKFIDEQQILHWQHYSRKRMRLQQALAEQQQQNNTSGK
B8: MED18 (protein, UniProt Q9BUE0 1-208)
chain: MEAPPVTMMPVTGGTINMMEYLLQGSVLDHSLESLIHRLRGLCDNMEPETFLDHEMVFLLKGQQASPFVLRARRSMDRAGAPWHLRYLGQPEMGDKNRHALVRNCVDIATSENLTDFLMEMGFRMDHEFVAKGHLFRKGIMKIMVYKIFRILVPGNTDSTEALSLSYLVELSVVAPAGQDMVSDDMKNFAEQLKPLVHLEKIDPKRLM
B9: MED9 (protein, UniProt Q9NWA0 1-146)
chain: MASAGVAAGRQAEDVLPPTSDQPLPDTKPLPPPQPPPVPAPQPQQSPAPRPQSPARAREEENYSFLPLVHNIIKCMDKDSPEVHQDLNALKSKFQEMRKLISTMPGIHLSPEQQQQQLQSLREQVRTKNELLQKYKSLCMFEIPKE
B10: Myc-MED21 (protein, UniProt Q13503 1-144)
chain: MADRLTQLQDAVNSLADQFCNAIGVLQQCGPPASFNNIQTAINKDQPANPTEEYAQLFAALIARTAKDIDVLIDSLPSEESTAALQAASLYKLEEENHEAATCLEDVVYRGDMLLEKIQSALADIAQSQLKTRSGTHSQSLPDS
B11: MED4 (protein, UniProt Q9NPJ6 1-270)
chain: MAASSSGEKEKERLGGGLGVAGGNSTRERLLSALEDLEVLSRELIEMLAISRNQKLLQAGEENQVLELLIHRDGEFQELMKLALNQGKIHHEMQVLEKEVEKRDSDIQQLQKQLKEAEQILATAVYQAKEKLKSIEKARKGAISSEEIIKYAHRISASNAVCAPLTWVPGDPRRPYPTDLEMRSGLLGQMNNPSTNGVNGHLPGDALAAGRLPDVLAPQYPWQSNDMSMNMLPPNHSSDFLLEPPGHNKENEDDVEIMSTDSSSSSSESD
B12: HA-MED7 (protein, UniProt O43513 1-233)
chain: MGEPQQVSALPPPPMQYIKEYTDENIQEGLAPKPPPPIKDSYMMFGNQFQCDDLIIRPLESQGIERLHPMQFDHKKELRKLNMSILINFLDLLDILIRSPGSIKREEKLEDLKLLFVHVHHLINEYRPHQARETLRVMMEVQKRQRLETAERFQKHLERVIEMIQNCLASLPDDLPHSEAGMRVKTEPMDADDSNNCTGQNEHQRENSGHRRDQIIEKDAALCVLIDEMNERP
B13: MED20 (protein, UniProt Q9H944 1-212)
chain: MGVTCVSQMPVAEGKSVQQTVELLTRKLEMLGAEKQGTFCVDCETYHTAASTLGSQGQTGKLMYVMHNSEYPLSCFALFENGPCLIADTNFDVLMVKLKGFFQSAKASKIETRGTRYQYCDFLVKVGTVTMGPSARGISVEVEYGPCVVASDCWSLLLEFLQSFLGSHTPGAPAVFGNRHDAVYGPADTMVQYMELFNKIRKQQQVPVAGIR

These are yes or no findings as the source states them, for the method shown. In cells and extracts the contact can be indirect. Some results given as binding are weak or reduced against the parent protein; the word gives no strength. Sequences can lack the tags named with a protein.

In the test the target is T1, FLAG-tagged MED17 (human). Briefly: co-IP + SEC; Hi5 cell extract (BC500) on anti-FLAG M2 agarose, washed with BC300, eluted with 0.5 mg/mL FLAG peptide, then Superose 6 gel filtration; Coomassie or silver stain. In general terms: Size exclusion chromatography separates by hydrodynamic size, large species first.
On to MED14 (from UniProt O60244 1-1454), for which the binding result is given as “binds”.

For the molecule B1, the binding result was “binds”. Next, B2: “binds”. To B3 belongs “binds”; to B4, “binds”. To B5 belongs “binds”; to B6, “binds”; to B7, “binds”. For the molecule B8, the binding entry is given as “binds”. To B9 belongs “binds”; to B10, “binds”.

B11: the binding entry is given as “binds”. Next, B12: “binds”; B13: “binds”.

The values are drawn from publication PMC8313941.
